Literature values in patent publication US20220313753A1, “BIFIDOBACTERIUM BIFIDUM BACTERIAL STRAIN, THE COMPOSITIONS THEREOF AND RELATED USES” (priority 2019, published 2022).
For at least one compound, name, drawing or mass did not settle the structure.

Tested on: bifidobacteria
Conditions: limit values provided for bifidobacteria (EFSA, 2012); cited from earlier work

| SMILES | EFSA limit values |
| --- | --- |
| CCC[C@@H]1C[C@@H](C(=O)N[C@@H]([C@H]2O[C@H](SC)[C@H](O)[C@@H](O)[C@H]2O)[C@H](C)Cl)N(C)C1 [clindamycin] | 1 µg/mL |
| CN(C)[C@@H]1C(O)=C(C(N)=O)C(=O)[C@@]2(O)C(O)=C3C(=O)c4c(O)cccc4[C@@](C)(O)[C@H]3C[C@@H]12 [tetracycline] | 8 µg/mL |
